The results in this text go back to paper PMC10093452.

Protein sequences, listed by entry. Tags and fused reporters are not part of them.
UniProt Q08024: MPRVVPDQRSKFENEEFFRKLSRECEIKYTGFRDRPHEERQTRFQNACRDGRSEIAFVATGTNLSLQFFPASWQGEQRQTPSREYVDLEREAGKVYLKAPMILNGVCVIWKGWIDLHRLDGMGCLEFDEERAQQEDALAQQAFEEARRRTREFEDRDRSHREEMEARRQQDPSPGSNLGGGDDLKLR
UniProt Q03347: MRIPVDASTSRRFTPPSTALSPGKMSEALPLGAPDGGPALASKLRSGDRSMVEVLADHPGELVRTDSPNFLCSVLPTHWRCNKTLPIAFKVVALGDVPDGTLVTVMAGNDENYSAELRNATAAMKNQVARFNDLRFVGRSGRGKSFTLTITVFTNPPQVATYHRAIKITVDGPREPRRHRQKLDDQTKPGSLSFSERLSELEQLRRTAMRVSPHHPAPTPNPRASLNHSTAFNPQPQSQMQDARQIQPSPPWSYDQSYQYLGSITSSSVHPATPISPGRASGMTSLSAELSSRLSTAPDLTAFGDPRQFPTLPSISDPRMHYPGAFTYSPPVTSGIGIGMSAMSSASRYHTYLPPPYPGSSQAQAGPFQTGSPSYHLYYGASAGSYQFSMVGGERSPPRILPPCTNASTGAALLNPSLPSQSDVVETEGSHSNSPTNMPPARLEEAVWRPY

Results are given in words; binding and its absence hold for the method and conditions named. Binding seen in cells or lysates may run through a third protein. Some entries that bind do so weakly or less than the wild type.

The target of the experiment is Myc-Cbfβ (core binding factor β) (UniProt Q08024). Kind of experiment: co-IP; primary articular chondrocytes co-transfected with Myc-Cbfβ and Flag-Runx1 for 24 h; cell lysates (400 μg) bound with anti-Myc at 4 °C overnight, Sepharose A beads 2 h at 4 °C, five washes with lysis buffer; Western blot with anti-Flag or anti-Myc. In general terms: In western blotting, separated proteins are transferred to a membrane and probed.

Take “Flag-Runx1 (runt-related transcription factor 1) (from UniProt Q03347 1-451)”: the binding result is “binds”.
